Measured values: patent US20200181245A1 (University of California, published 2020)

Amino acid sequences for entries named in this document (tags omitted). A change or cut given only in a name is not applied to a line headed by its entry.
UniProt P10637: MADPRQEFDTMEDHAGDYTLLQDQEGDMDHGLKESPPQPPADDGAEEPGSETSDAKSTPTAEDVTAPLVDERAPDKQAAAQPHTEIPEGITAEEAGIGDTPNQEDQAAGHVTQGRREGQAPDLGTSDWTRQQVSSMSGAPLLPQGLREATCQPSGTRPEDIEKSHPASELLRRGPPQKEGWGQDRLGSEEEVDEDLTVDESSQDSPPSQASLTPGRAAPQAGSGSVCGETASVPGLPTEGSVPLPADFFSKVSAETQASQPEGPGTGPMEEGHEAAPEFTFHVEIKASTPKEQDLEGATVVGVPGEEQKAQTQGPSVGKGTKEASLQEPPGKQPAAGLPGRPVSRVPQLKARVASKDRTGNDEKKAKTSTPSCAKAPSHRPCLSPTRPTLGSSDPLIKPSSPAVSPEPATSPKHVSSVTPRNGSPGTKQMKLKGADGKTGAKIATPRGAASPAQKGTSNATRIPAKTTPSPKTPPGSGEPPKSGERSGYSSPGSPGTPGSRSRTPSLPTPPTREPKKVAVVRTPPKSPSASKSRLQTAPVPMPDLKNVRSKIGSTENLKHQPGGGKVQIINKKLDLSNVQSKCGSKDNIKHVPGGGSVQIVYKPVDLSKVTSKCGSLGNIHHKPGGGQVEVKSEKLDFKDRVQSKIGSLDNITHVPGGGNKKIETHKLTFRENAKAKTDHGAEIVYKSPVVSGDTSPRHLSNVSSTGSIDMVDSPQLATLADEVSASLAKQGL

Columns and labels:
[1] = molecular target: 4RTau expressed in 4RTau tg mice; assay: immunostaining of brain sections from non-tg, 3RTau tg and 4RTau tg mice
[2] = molecular target: endogenous mouse Tau (4RTau of adult mouse neurons; non-tg mice) (mouse) (UniProt P10637); assay: immunostaining of mouse neuronal cells

B1: 3RT single chain antibody (Clone 5F10) (scFv)
scFv: MEQVNLRESGAEVKKPGASVKVSCKVSGYTFTGYYMHWVRQAPGQGLEWMGWINSNSGATKYAQKFQGRVTMTRDTSITTAYMELSSLRSDDTAVYYCARGARDGYGFDYWGQGTLVTVLAGGGGSGGGGSGGGGSGAPSYVLTQPPSASGTPGQRVTISCSGGSSNIGSNAVSWYQQLPGTAPKLLIFTNDQRPSGVPDRFSGSKSGTSAPLAISGLQSEDESDYYCATWDDSLNGWVFGGGTKVTVRS
notes: Human scFv from a phage display library; It was expressed from mammalian scFV cassettes; also called 3RT scFV; 3RTau scFV
binding [1]: no binding | binding [2]: no binding

No constants are given. Whether binding was seen depends on the method and setting.
